Test results as given in US20100197650A1, “COMPOSITIONS AND METHODS OF TREATMENT COMPRISING CEFTAROLINE” (FOREST LABORATORIES HOLDINGS LTD., priority 2008, published 2010).
At least one structure is not confirmed: it was looked up by name or label, or the drawing left a doubt.

Assays:
HA-MRSA = test: Time-kill curves at ¼ and ½ MIC (Example 3); assay type: cell-based, Staphylococcus aureus; details: drug alone at ½ MIC, hVISA isolate R3875
P. aeruginosa = test: Susceptibility testing MIC/MBC, broth microdilution (Example 2); assay type: cell-based, Pseudomonas aeruginosa; details: P. aeruginosa (20) clinical isolates
[1] = test system: ESBL-producing Klebsiella pneumoniae; test: as above; assay type: cell-based; details: K. pneumonia (10) clinical isolates
[2] = test system: CA- (community-acquired) and HA-MRSA; details: ½ MIC; cited from earlier work

CCO/N=C(\C(=O)N[C@@H]1C(=O)N2C(C(=O)[O-])=C(Sc3nc(-c4cc[n+](C)cc4)cs3)CS[C@H]12)c1nsc(N)n1 [Ceftaroline]
bactericidal activity (HA-MRSA): persistent bactericidal activity

C[C@H]1COc2c(N3CCN(C)CC3)c(F)cc3c(=O)c(C(=O)O)cn1c23 [Levofloxacin]
MBC range (P. aeruginosa): 0.5->32 | MBC range [1]: 0.25->32/0.25->32 | MIC range [1]: 0.25->32/0.25->32

Nc1nc(/C(=N/O)C(=O)N[C@@H]2C(=O)N3C(C(=O)O)=C(/C=C4\CCN([C@@H]5CCNC5)C4=O)CS[C@H]23)ns1 [ceftobiprole]
killing activity alone [2]: potent killing activity
